This data set is described as follows: Optical property of the optical film (retardation, Re(450)/Re(550)). To be noted: Re(450)/Re(550) of the optical film, RET-100.

As to `C=CC(=O)OCCCCCCOc1ccc(C(=O)Oc2ccc(C(=O)OCCc3ccc(OC(=O)c4ccc(OC(=O)c5ccc(OCCCCCCOC(=O)C=C)cc5)cc4)c(/C=N/Nc4nc5ccccc5s4)c3)cc2)cc1` [1-ch-79], the Optical property entry is on record as “A (Re(450)/Re(550)≤0.85)”.

As for `C=CC(=O)OCCCCOC(=O)/C=C/c1ccc(CCC(=O)Oc2ccc(OC(=O)CCc3ccc(/C=C/C(=O)OCCCCOC(=O)C=C)cc3)c(/C=N/Nc3nc4ccccc4s3)c2)cc1` [1-cj-59], the Optical property result is “A (Re(450)/Re(550)≤0.85)”.

As for `C=CC(=O)OCCCCCCOC(=O)/C=C/c1ccc(CCC(=O)Oc2ccc(OC(=O)CCc3ccc(/C=C/C(=O)OCCCCCCOC(=O)C=C)cc3)c(/C=N/Nc3nc4ccccc4s3)c2)cc1` [1-cj-60], the Optical property entry is “A (Re(450)/Re(550)≤0.85)”.

For `C=CC(=O)OCCCOC(=O)/C=C/c1ccc(CCC(=O)Oc2ccc(OC(=O)CCc3ccc(/C=C/C(=O)OCCCOC(=O)C=C)cc3)c(/C=N/Nc3nc4ccccc4s3)c2)cc1` [1-cj-63], the Optical property result was “A (Re(450)/Re(550)≤0.85)”.

Turning to `C=CC(=O)OCCCCCCOc1ccc(OC(=O)C2CCC(COc3ccc(OCC4CCC(C(=O)Oc5ccc(OCCCCCCOC(=O)C=C)cc5)CC4)c(/C=N/Nc4nc5ccccc5s4)c3)CC2)cc1` (stereo not shown) [1-cm-88], the Optical property entry was “A (Re(450)/Re(550)≤0.85)”.

Take `C=CC(=O)OCCCOc1ccc(OC(=O)C2CCC(COc3ccc(OCC4CCC(C(=O)Oc5ccc(OCCCOC(=O)C=C)cc5)CC4)c(/C=N/Nc4nc5ccccc5s4)c3)CC2)cc1` (stereo not shown) [1-cm-89]: the Optical property result is on record as “A (Re(450)/Re(550)≤0.85)”.

As to `C=CC(=O)OCCOCCOCCOc1ccc(OC(=O)C2CCC(COc3ccc(OCC4CCC(C(=O)Oc5ccc(OCCOCCOCCOC(=O)C=C)cc5)CC4)c(/C=N/Nc4nc5ccccc5s4)c3)CC2)cc1` (stereo not shown) [1-cm-105], the Optical property result was “A (Re(450)/Re(550)≤0.85)”.

Turning to `C=CC(=O)OCCCCCCOc1ccc(OC(=O)C2CCC(C(=O)OCCc3ccc(OC(=O)C4CCC(C(=O)Oc5ccc(OCCCCCCOC(=O)C=C)cc5)CC4)c(/C=N/N(CCCCCC)c4nc5ccccc5s4)c3)CC2)cc1` (stereo not shown) [1-cmn-82], the Optical property result was “A (Re(450)/Re(550)≤0.85)”.

Consider `C=CC(=O)OCCOCCOCCOc1ccc(OC(=O)C2CCC(COc3ccc(OCC4CCC(C(=O)Oc5ccc(OCCOCCOCCOC(=O)C=C)cc5)CC4)c(/C=N/N(CCCCCC)c4nc5ccccc5s4)c3)CC2)cc1` (stereo not shown) [1-cmn-90], for which the Optical property entry is “A (Re(450)/Re(550)≤0.85)”.

Take `C=CC(=O)OCCCCCCOc1ccc(OC(=O)C2CCC(COc3ccc(OCC4CCC(C(=O)Oc5ccc(OCCCCCCOC(=O)C=C)cc5)CC4)c(/C=N/N(CCOCCOC)c4nc5ccccc5s4)c3)CC2)cc1` (stereo not shown) [1-cmn-91]: the Optical property entry was “A (Re(450)/Re(550)≤0.85)”.

`C=CC(=O)OCCCOc1ccc(OC(=O)C2CCC(COc3ccc(OCC4CCC(C(=O)Oc5ccc(OCCCOC(=O)C=C)cc5)CC4)c(/C=N/N(CCOCCOC)c4nc5ccccc5s4)c3)CC2)cc1` (stereo not shown) [1-cmn-92]: the Optical property result is listed as “A (Re(450)/Re(550)≤0.85)”.

Turning to `C=CC(=O)OCCCCCCOc1ccc(OC(=O)C2CCC(COc3ccc(OCC4CCC(C(=O)Oc5ccc(OCCCCCCOC(=O)C=C)cc5)CC4)c(/C=N/N(CCOC(=O)C=C)c4nc5ccccc5s4)c3)CC2)cc1` (stereo not shown) [1-cmn-93], the Optical property entry is on record as “A (Re(450)/Re(550)≤0.85)”.

For `C=CC(=O)OCCCCCCOc1ccc(OC(=O)C2CCC(COc3ccc(OCC4CCC(C(=O)Oc5ccc(OCCCCCCOC(=O)C=C)cc5)CC4)c(/C=N/N(CCOCCOCCOC(=O)C=C)c4nc5ccccc5s4)c3)CC2)cc1` (stereo not shown) [1-cmn-94], the Optical property entry is given as “A (Re(450)/Re(550)≤0.85)”.

On to `C=CC(=O)OCCCOc1ccc(OC(=O)C2CCC(COc3ccc(OCC4CCC(C(=O)Oc5ccc(OCCCOC(=O)C=C)cc5)CC4)c(/C=N/N(C(=O)C=C)c4nc5ccccc5s4)c3)CC2)cc1` (stereo not shown) [1-cmn-107], for which the Optical property entry is given as “A (Re(450)/Re(550)≤0.85)”.

`C=CC(=O)OCCCCCCOc1ccc(OC(=O)C2CCC(COc3ccc(OCC4CCC(C(=O)Oc5ccc(OCCCCCCOC(=O)C=C)cc5)CC4)c(/C=N/N(C(=O)C=C)c4nc5ccccc5s4)c3)CC2)cc1` (stereo not shown) [1-cmn-108]: the Optical property entry was “A (Re(450)/Re(550)≤0.85)”.

As for `C=CC(=O)OCCCCCCOc1ccc(C(=O)Oc2ccc(OC(=O)c3ccc(OCCCCCCOC(=O)C=C)cc3)c(/C=N/N(CCCCCC)c3nc4ccccc4s3)c2)cc1` [1-cn-83], the Optical property result is listed as “A (Re(450)/Re(550)≤0.85)”.

For the compound `C=CC(=O)OCCCOc1ccc(C(=O)Oc2ccc(OCCCOC(=O)C=C)cc2/C=N/Nc2nc3ccccc3s2)cc1` [1-e-69], the Optical property result is given as “A (Re(450)/Re(550)≤0.85)”.

On to `C=CC(=O)OCCCCCCOc1ccc(C(=O)Oc2ccc(OCCCCCCOC(=O)C=C)cc2/C=N/Nc2nc3ccccc3s2)cc1` [1-e-70], for which the Optical property entry was “A (Re(450)/Re(550)≤0.85)”.

Regarding `C=CC(=O)OCCCCCCOc1ccc(C(=O)Oc2ccc3cc(OCCCCCCOC(=O)C=C)ccc3c2/C=N/Nc2nc3ccccc3s2)cc1` [1-e-73], the Optical property entry is reported as “A (Re(450)/Re(550)≤0.85)”.

In the case of `C=CC(=O)OCCCCOC1CCC(C(=O)Oc2ccc(OC(=O)C3CCC(OCCCCOC(=O)C=C)CC3)c(/C=N/Nc3nc4ccccc4s3)c2)CC1` (stereo not shown) [1-f-18], the Optical property result is “A (Re(450)/Re(550)≤0.85)”.

Take `C=CC(=O)OCCCCCCOC1CCC(C(=O)Oc2ccc(OC(=O)C3CCC(OCCCCCCOC(=O)C=C)CC3)c(/C=N/Nc3nc4ccccc4s3)c2)CC1` (stereo not shown) [1-f-19]: the Optical property entry is listed as “A (Re(450)/Re(550)≤0.85)”.

With `C=CC(=O)OCCCCOC(=O)C1CCC(C(=O)OC2CCC(C(=O)Oc3ccc(OC(=O)C4CCC(OC(=O)C5CCC(C(=O)OCCCCOC(=O)C=C)CC5)CC4)c(/C=N/Nc4nc5ccccc5s4)c3)CC2)CC1` (stereo not shown) [1-f-20], the Optical property result was “A (Re(450)/Re(550)≤0.85)”.

Turning to `C=CC(=O)OCCCCCCOC1CCC(C(=O)Oc2ccc(OC(=O)C3CCC(OCCCCCCOC(=O)C=C)CC3)c(/C=N/N(c3ccccc3)c3ccccc3)c2)CC1` (stereo not shown) [1-f-21], the Optical property entry is “A (Re(450)/Re(550)≤0.85)”.

Take `C=CC(=O)OCCCCOC(=O)C1CCC(C(=O)OC2CCC(C(=O)Oc3ccc(OC(=O)C4CCC(OC(=O)C5CCC(C(=O)OCCCCOC(=O)C=C)CC5)CC4)c(/C=N/Nc4nc5ccc6ccccc6c5s4)c3)CC2)CC1` (stereo not shown) [1-f-22]: the Optical property result is “A (Re(450)/Re(550)≤0.85)”.

As to `C=CC(=O)OCCCCOC(=O)C1CCC(OC(=O)C2CCC(C(=O)Oc3ccc(OC(=O)C4CCC(C(=O)OC5CCC(C(=O)OCCCCOC(=O)C=C)CC5)CC4)c(/C=N/Nc4nc5ccccc5s4)c3)CC2)CC1` (stereo not shown) [1-f-95], the Optical property entry was “A (Re(450)/Re(550)≤0.85)”.

On to `C=CC(=O)OCCCCOC(=O)C1CCC(C(=O)OC2CCC(C(=O)Oc3ccc(OC(=O)C4CCC(OC(=O)C5CCC(C(=O)OCCCCOC(=O)C=C)CC5)CC4)c(/C=N/N(CCCCCC)c4nc5ccccc5s4)c3)CC2)CC1` (stereo not shown) [1-f-97], for which the Optical property entry is reported as “A (Re(450)/Re(550)≤0.85)”.

As for `C=CC(=O)OCCCCOC(=O)C1CCC(C(=O)OC2CCC(C(=O)Oc3ccc(OC(=O)C4CCC(OC(=O)C5CCC(C(=O)OCCCCOC(=O)C=C)CC5)CC4)c(/C=N/N(CCCCC)c4nc5ccccc5s4)c3)CC2)CC1` (stereo not shown) [1-f-98], the Optical property entry is “A (Re(450)/Re(550)≤0.85)”.

With `C=CC(=O)OCCCCOC(=O)C1CCC(C(=O)OC2CCC(C(=O)Oc3ccc(OC(=O)C4CCC(OC(=O)C5CCC(C(=O)OCCCCOC(=O)C=C)CC5)CC4)c(/C=N/N(CCCC)c4nc5ccccc5s4)c3)CC2)CC1` (stereo not shown) [1-f-99], the Optical property result is reported as “A (Re(450)/Re(550)≤0.85)”.
